The values that follow come from paper PMC13485502.

The chains behind the UniProt entries cited, without tags or fusion partners.
UniProt P01106: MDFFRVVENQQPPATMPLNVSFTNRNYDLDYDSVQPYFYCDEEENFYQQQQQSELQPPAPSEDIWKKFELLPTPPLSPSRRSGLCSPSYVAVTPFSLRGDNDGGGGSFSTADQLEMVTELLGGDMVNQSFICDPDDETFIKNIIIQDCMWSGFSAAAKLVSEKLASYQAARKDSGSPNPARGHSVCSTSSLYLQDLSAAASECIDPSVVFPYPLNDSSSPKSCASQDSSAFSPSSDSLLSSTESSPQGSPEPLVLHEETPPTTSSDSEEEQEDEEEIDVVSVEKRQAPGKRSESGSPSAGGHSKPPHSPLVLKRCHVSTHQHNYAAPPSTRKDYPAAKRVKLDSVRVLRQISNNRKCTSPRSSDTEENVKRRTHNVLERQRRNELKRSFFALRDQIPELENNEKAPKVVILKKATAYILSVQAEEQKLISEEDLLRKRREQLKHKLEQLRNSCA

This assay concerns the target T1, chaperonin containing TCP1 subunit 2 (human (endogenous in HSC-3)) (UniProt P78371).
T1 sequence: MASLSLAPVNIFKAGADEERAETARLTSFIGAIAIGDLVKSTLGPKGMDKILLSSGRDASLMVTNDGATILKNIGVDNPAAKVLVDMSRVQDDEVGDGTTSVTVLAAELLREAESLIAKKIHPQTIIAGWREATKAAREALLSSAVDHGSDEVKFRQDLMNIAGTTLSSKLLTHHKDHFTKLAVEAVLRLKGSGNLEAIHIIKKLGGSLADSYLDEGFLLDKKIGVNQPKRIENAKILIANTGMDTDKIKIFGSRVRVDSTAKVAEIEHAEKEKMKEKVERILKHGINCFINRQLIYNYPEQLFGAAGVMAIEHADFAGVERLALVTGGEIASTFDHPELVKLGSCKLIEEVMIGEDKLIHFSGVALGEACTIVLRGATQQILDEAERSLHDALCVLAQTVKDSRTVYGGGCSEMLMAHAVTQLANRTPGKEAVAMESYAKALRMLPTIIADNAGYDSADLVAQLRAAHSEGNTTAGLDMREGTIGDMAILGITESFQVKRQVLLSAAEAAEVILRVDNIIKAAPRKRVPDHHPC
The assay is described as follows: co-IP; HSC-3 cell lysates in immunoprecipitation lysis buffer with protease inhibitors; incubated at 4 °C overnight with anti-CCT2 or anti-c-Myc antibody, then protein A/G agarose beads; Western blot for c-Myc and CCT2.

No constants are given. Whether binding was seen depends on the method and setting. Binding seen in cells or lysates may run through a third protein. Some binding calls cover weakened binding; strength is not graded here.

In the case of c-Myc (from UniProt P01106 1-454), the binding result is “binds”.
